Experimental data published in PubChem BioAssay AID1498 (National Center for Advancing Translational Sciences (NCATS), 2009).
Some of the results follow. Shown are side measurements of this screen, not its main read-out; they come without a call. The list favours compounds with an active or inconclusive main result. Potencies come from curve fits of mixed quality, noted in brackets.

Test: Confirmation Concentration-Response Assay for Modulators of Lamin A Splicing
Conditions: HeLa lamin A splicing GFP/RFP minigene, Acumen, 48 h; for ratio activity: GFP/RFP ratio at top concentration; for ratio activity / RFP activity: at 46.1 µM; for RFP activity: RFP channel at top concentration
Excerpt: NCGC Assay Overview: Hutchinson-Gilford Progeria Syndrome (HGPS) is a pediatric premature aging disease caused by a spontaneous mutation in the lamin A/C (LMNA) gene. The mutation activates a cryptic splice site in the LMNA pre-mRNA which results in production of a pre-lamin A protein that cannot be processed properly. The mutant protein accumulates in the nucleus and negatively affects numerous cellular functions. Correction of the splicing defect in HGPS patient cells using a targeted oligonucleotide (exo11) leads to reversal of the cellular disease phenotypes. To identify small molecule modulators of aberrant LMNA splicing, a homogenous assay was constructed in HeLa cells that used a GFP containing minigene to report on correction of aberrant splicing in lamin A and a RFP (DsRed2) to report on cell viability, uniformity and nonspecific effects on the assay signal. This assay was adapted to laser-scanning microplate cytometry (Acumen, TTP Labtech) where miniaturization of the assay to a 1,536-well plate format was possible. Select compounds active in the primary screen (AID 1487) were chosen for confirmation based on potency, efficacy, SAR and activity in other assays in PubChem and at NCGC. References: Bowen, W. P.; Wylie, P. G. Application of Laser-Scanning Fluorescence Microplate Cytometry in High Content Screening. Assay Drug Dev Technol 2006;4:209-221. Scaffidi P, Misteli T. Reversal of the cellular phenotype in the premature aging disease Hutchinson-Gilford progeria syndrome. Nat. Med. 2005;11:440-445.
NCGC Assay Protocol Summary: Reagents/Controls: Stable clones expressing DsRed2 and lamin A-EGFP were generated by Cell and Molecular Technologies in S3 HeLa cells. HeLa cells were prepared for the assay when they were 70-90% confluent. The cells were counted and resuspended in Opti-MEM I (no phenol red; Gibco), 2% FBS, 1% penicillin/ streptomycin (Gibco) at concentration of 120 cells/uL concentration. The suspension was passed through a Falcon basket filter with pore size 40um (Beckton Dickson). Control titrations: column […] 1536-well plate contained a sixteen point titration (1:2 dilutions) in duplicate of ancitabine (Sigma: A8598) beginning at 40 uM final concentration. Column 2 contained a sixteen point titration (1:2 dilutions) of cycloheximide beginning at 1.4 mM final concentration. Column 3 contained ancitabine at 40 uM and column 4 contained was the vehicle control (0.5% DMSO final concentration). Assay Steps: 5 uL of HeLa cells were plated in Aurora LoBase black clear bottom (cyclic-olefin polymer) 1536-well plates at a final density of 600 cells/well. Controls and library compounds were added with a 1536-well pin array using the Kalypsys pin-tool. The plates were then incubated for 48 hrs in a cell-culture incubator (37 °C; 5% CO2, 98% humidity). Following incubation the plates were read on the Acumen Explorer using the 488 nm laser. Data was collected on objects between 10 and 100 um in size. Cell objects were defined by a 15 um width x 10 um depth filter. The ratio of the total object intensity in PMT1 (500-530 nm emission; GFP) over PMT3 (575-640 nm emission; RFP) was calculated for analysis. Keywords: NIH Roadmap, MLSCN, MLI, MLSMR, qHTS, NCGC, lamin A, Progeria, RNA splicing.

[1] = measured here: GFP/RFP ratio splicing readout
[2] = measured here: RFP viability/nonspecific counter channel

SMILES | ratio activity | RFP activity | AC50 [1] | AC50 [2]
COc1ccc(OC)c(NC(=O)C2CCC(CNc3c(N4CCC(C)CC4)c(=O)c3=O)CC2)c1 (stereo not given) | -34.3% | -18.2% | 14.1 µM [falling, full curve, poor fit] | 3.16 µM [falling, full curve, poor fit]
C/C=C\C1=CCCC1Nc1ncnc2ccc(-c3c(C)noc3C)cc12 (stereo not given) | -31.8% | -24.9% | 11.2 µM [falling, full curve] | –
O=C(Cn1ncc(Cl)c(Cl)c1=O)N1CCN(S(=O)(=O)c2ccc3ccccc3c2)CC1 | -34.7% | -23.7% | 39.8 µM [falling, single point] | 8.91 µM [falling, full curve, poor fit]
CC(O)/C=C/c1ccc2ccccc2n1 (stereo not given) | -46.5% | -43.7% | 14.1 µM [falling, partial curve, poor fit] | –
CCOc1ccccc1CNc1ncnc2ccc(-c3c(C)noc3C)cc12 | -26.7% | -39.2% | 3.55 µM [falling, full curve, poor fit] | 35.5 µM [falling, single point]
CCOC(=O)c1c(-c2cccc(C)c2)csc1NC(=O)c1c(-c2ccccc2)noc1C | -49.2% | 21.7% | 0.562 µM [falling, full curve] | 0.2 µM [rising, full curve, poor fit]
COC(=O)Nc1nc(-c2ccccc2)c(C(=O)c2ccc(Cl)cc2)s1 | -26.7% | -33.3% | 0.251 µM [falling, full curve, poor fit] | 6.31 µM [falling, full curve, poor fit]
CN(Cc1cnc2nc(N)nc(N)c2n1)c1ccc(C(=O)N[C@H](CCC(=O)O)C(=O)O)cc1 | -37.1% | 32.5% | 0.0562 µM [falling, full curve, poor fit] | 0.00501 µM [rising, full curve, poor fit]
Cc1cc(C)cc(N(CCC(=O)O)S(=O)(=O)c2ccc3ccccc3c2)c1 | -17.3% | 0.58% | – | 3.98 µM [rising, partial curve, poor fit]
COc1cc(N[C@@H](C)CCCN)c2ncccc2c1 | -30.9% | -18% | 28.2 µM [falling, partial curve, poor fit] | –
Cc1cccc(CNc2ncnc3ccc(-c4c(C)noc4C)cc23)c1 | -39% | 30.1% | 3.98 µM [falling, full curve] | 15.8 µM [rising, full curve, poor fit]
